Source: article PMC4729931

Legend:
[1] = molecular target: T1, VANGL2 (human (endogenous in SUM149, SKBR7, PDX)) (UniProt Q9ULK5); experiment: affinity purification with mass spectrometry
T1 sequence: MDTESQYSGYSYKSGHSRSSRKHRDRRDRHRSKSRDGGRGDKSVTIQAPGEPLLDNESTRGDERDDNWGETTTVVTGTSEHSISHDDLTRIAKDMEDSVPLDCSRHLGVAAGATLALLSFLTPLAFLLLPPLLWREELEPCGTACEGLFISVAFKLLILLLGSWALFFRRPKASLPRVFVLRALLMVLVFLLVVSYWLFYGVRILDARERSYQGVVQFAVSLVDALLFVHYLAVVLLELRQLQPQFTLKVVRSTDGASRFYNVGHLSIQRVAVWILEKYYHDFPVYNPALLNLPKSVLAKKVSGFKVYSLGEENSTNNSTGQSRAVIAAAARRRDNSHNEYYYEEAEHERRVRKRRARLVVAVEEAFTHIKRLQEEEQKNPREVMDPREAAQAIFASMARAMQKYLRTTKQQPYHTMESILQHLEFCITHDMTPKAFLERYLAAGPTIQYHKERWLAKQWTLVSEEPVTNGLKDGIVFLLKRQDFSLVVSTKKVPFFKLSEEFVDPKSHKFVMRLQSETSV

[2] = molecular target: T1, VANGL2 (human (endogenous in SUM149, SKBR7, PDX)); experiment: affinity purification with mass spectrometry; endogenous VANGL2 complexes immunoprecipitated from SUM149 cell extracts with 2G4 anti-VANGL2 antibody; controls: beads alone or isotypic antibody; LC-MS/MS (LTQ-Velos-Orbitrap)

B1: VANGL1 (protein, UniProt Q8TAA9 1-524)
chain: MDTESTYSGYSYYSSHSKKSHRQGERTRERHKSPRNKDGRGSEKSVTIQPPTGEPLLGNDSTRTEEVQDDNWGETTTAITGTSEHSISQEDIARISKDMEDSVGLDCKRYLGLTVASFLGLLVFLTPIAFILLPPILWRDELEPCGTICEGLFISMAFKLLILLIGTWALFFRKRRADMPRVFVFRALLLVLIFLFVVSYWLFYGVRILDSRDRNYQGIVQYAVSLVDALLFIHYLAIVLLELRQLQPMFTLQVVRSTDGESRFYSLGHLSIQRAALVVLENYYKDFTIYNPNLLTASKFRAAKHMAGLKVYNVDGPSNNATGQSRAMIAAAARRRDSSHNELYYEEAEHERRVKKRKARLVVAVEEAFIHIQRLQAEEQQKAPGEVMDPREAAQAIFPSMARALQKYLRITRQQNYHSMESILQHLAFCITNGMTPKAFLERYLSAGPTLQYDKDRWLSTQWRLVSDEAVTNGLRDGIVFVLKCLDFSLVVNVKKIPFIILSEEFIDPKSHKFVLRLQSETSV
binding [1]: binds
binding [2]: binds

No constants are given. Whether binding was seen depends on the method and setting. In cells and extracts the contact can be indirect. These calls come from enrichment with a bait or labelling near it, and not all partners need be listed.
